Assay [1] addresses T1, 3xFLAG::SMRC-1 (C. elegans) (UniProt Q8MNV7).
T1 sequence: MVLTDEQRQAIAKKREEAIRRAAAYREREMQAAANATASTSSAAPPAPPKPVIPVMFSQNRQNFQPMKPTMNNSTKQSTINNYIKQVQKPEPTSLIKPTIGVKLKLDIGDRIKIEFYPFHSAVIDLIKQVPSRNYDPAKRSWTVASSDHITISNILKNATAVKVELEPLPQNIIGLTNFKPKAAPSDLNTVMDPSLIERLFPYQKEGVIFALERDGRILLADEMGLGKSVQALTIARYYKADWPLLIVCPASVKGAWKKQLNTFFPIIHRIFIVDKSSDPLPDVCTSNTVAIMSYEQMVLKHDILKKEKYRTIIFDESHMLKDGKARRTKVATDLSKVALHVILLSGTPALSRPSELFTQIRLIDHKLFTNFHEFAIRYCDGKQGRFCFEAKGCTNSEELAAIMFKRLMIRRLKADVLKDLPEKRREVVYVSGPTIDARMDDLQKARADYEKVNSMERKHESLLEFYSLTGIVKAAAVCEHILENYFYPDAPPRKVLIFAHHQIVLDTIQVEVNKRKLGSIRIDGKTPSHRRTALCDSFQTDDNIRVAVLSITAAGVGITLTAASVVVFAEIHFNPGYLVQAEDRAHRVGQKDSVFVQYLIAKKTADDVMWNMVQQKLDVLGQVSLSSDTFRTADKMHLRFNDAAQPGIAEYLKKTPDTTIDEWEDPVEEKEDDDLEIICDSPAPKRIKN
As to the kind of experiment: co-IP; IP with anti-FLAG antibody from extract of endogenously tagged 3xflag::smrc-1 adults; blot probed with anti-MET-2; wildtype extract as control.

Assay [2] addresses T2, MET-2 (methyltransferase-2) (C. elegans (endogenous in adult worms)) (UniProt P34544).
T2 sequence: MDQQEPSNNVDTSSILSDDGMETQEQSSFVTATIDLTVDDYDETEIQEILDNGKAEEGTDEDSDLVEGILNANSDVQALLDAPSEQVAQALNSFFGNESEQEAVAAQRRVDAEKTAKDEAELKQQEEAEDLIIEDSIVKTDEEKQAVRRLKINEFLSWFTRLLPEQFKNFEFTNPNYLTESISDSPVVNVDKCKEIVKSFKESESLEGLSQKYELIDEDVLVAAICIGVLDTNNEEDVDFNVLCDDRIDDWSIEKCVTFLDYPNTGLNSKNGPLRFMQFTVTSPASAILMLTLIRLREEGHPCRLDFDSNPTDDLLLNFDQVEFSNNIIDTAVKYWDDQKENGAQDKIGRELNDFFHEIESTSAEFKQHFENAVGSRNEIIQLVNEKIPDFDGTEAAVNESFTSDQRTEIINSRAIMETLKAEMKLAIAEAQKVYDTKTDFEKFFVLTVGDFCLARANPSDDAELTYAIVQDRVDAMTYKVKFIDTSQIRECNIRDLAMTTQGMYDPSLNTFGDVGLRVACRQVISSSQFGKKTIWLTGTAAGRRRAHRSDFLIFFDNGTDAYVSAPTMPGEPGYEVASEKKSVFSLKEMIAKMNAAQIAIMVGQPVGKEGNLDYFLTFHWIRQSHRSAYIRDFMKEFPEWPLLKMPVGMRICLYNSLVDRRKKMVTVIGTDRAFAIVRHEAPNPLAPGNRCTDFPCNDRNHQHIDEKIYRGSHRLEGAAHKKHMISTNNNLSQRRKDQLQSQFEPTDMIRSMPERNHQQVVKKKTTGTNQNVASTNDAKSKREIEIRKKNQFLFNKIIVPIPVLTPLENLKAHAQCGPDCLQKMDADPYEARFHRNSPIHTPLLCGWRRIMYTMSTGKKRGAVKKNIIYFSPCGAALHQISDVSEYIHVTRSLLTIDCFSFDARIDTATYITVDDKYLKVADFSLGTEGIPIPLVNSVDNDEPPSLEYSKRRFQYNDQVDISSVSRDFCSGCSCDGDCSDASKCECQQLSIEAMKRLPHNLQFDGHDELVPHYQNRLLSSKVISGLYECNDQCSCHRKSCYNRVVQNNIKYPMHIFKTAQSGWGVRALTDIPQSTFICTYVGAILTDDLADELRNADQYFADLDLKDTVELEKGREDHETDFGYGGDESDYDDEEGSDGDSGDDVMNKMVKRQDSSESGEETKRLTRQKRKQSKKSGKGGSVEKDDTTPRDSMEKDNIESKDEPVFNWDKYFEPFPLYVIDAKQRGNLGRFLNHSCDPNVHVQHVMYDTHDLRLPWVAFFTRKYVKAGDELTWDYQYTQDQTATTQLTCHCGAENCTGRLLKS
As to the kind of experiment: co-IP; IP with anti-MET-2 polyclonal antibody from nuclear extract of him-8(e1489) adults; met-2(n4256) as negative control; how SMRC-1 was identified in the precipitate is not told.

The values that follow come from publication PMC6402707.

These are yes or no findings as the source states them, for the method shown. In cells and extracts the contact can be indirect. Some binding calls cover weakened binding; strength is not graded here. For some assays here: Where a sequence is shown, tags or fusion partners need not be part of it.

B1: MET-2 (methyltransferase-2) (protein, UniProt P34544 1-1304)
chain: MDQQEPSNNVDTSSILSDDGMETQEQSSFVTATIDLTVDDYDETEIQEILDNGKAEEGTDEDSDLVEGILNANSDVQALLDAPSEQVAQALNSFFGNESEQEAVAAQRRVDAEKTAKDEAELKQQEEAEDLIIEDSIVKTDEEKQAVRRLKINEFLSWFTRLLPEQFKNFEFTNPNYLTESISDSPVVNVDKCKEIVKSFKESESLEGLSQKYELIDEDVLVAAICIGVLDTNNEEDVDFNVLCDDRIDDWSIEKCVTFLDYPNTGLNSKNGPLRFMQFTVTSPASAILMLTLIRLREEGHPCRLDFDSNPTDDLLLNFDQVEFSNNIIDTAVKYWDDQKENGAQDKIGRELNDFFHEIESTSAEFKQHFENAVGSRNEIIQLVNEKIPDFDGTEAAVNESFTSDQRTEIINSRAIMETLKAEMKLAIAEAQKVYDTKTDFEKFFVLTVGDFCLARANPSDDAELTYAIVQDRVDAMTYKVKFIDTSQIRECNIRDLAMTTQGMYDPSLNTFGDVGLRVACRQVISSSQFGKKTIWLTGTAAGRRRAHRSDFLIFFDNGTDAYVSAPTMPGEPGYEVASEKKSVFSLKEMIAKMNAAQIAIMVGQPVGKEGNLDYFLTFHWIRQSHRSAYIRDFMKEFPEWPLLKMPVGMRICLYNSLVDRRKKMVTVIGTDRAFAIVRHEAPNPLAPGNRCTDFPCNDRNHQHIDEKIYRGSHRLEGAAHKKHMISTNNNLSQRRKDQLQSQFEPTDMIRSMPERNHQQVVKKKTTGTNQNVASTNDAKSKREIEIRKKNQFLFNKIIVPIPVLTPLENLKAHAQCGPDCLQKMDADPYEARFHRNSPIHTPLLCGWRRIMYTMSTGKKRGAVKKNIIYFSPCGAALHQISDVSEYIHVTRSLLTIDCFSFDARIDTATYITVDDKYLKVADFSLGTEGIPIPLVNSVDNDEPPSLEYSKRRFQYNDQVDISSVSRDFCSGCSCDGDCSDASKCECQQLSIEAMKRLPHNLQFDGHDELVPHYQNRLLSSKVISGLYECNDQCSCHRKSCYNRVVQNNIKYPMHIFKTAQSGWGVRALTDIPQSTFICTYVGAILTDDLADELRNADQYFADLDLKDTVELEKGREDHETDFGYGGDESDYDDEEGSDGDSGDDVMNKMVKRQDSSESGEETKRLTRQKRKQSKKSGKGGSVEKDDTTPRDSMEKDNIESKDEPVFNWDKYFEPFPLYVIDAKQRGNLGRFLNHSCDPNVHVQHVMYDTHDLRLPWVAFFTRKYVKAGDELTWDYQYTQDQTATTQLTCHCGAENCTGRLLKS
For the molecule B1, the binding result in assay [1] is “binds”.

B2: SMRC-1 (protein, UniProt Q8MNV7 1-690)
chain: MVLTDEQRQAIAKKREEAIRRAAAYREREMQAAANATASTSSAAPPAPPKPVIPVMFSQNRQNFQPMKPTMNNSTKQSTINNYIKQVQKPEPTSLIKPTIGVKLKLDIGDRIKIEFYPFHSAVIDLIKQVPSRNYDPAKRSWTVASSDHITISNILKNATAVKVELEPLPQNIIGLTNFKPKAAPSDLNTVMDPSLIERLFPYQKEGVIFALERDGRILLADEMGLGKSVQALTIARYYKADWPLLIVCPASVKGAWKKQLNTFFPIIHRIFIVDKSSDPLPDVCTSNTVAIMSYEQMVLKHDILKKEKYRTIIFDESHMLKDGKARRTKVATDLSKVALHVILLSGTPALSRPSELFTQIRLIDHKLFTNFHEFAIRYCDGKQGRFCFEAKGCTNSEELAAIMFKRLMIRRLKADVLKDLPEKRREVVYVSGPTIDARMDDLQKARADYEKVNSMERKHESLLEFYSLTGIVKAAAVCEHILENYFYPDAPPRKVLIFAHHQIVLDTIQVEVNKRKLGSIRIDGKTPSHRRTALCDSFQTDDNIRVAVLSITAAGVGITLTAASVVVFAEIHFNPGYLVQAEDRAHRVGQKDSVFVQYLIAKKTADDVMWNMVQQKLDVLGQVSLSSDTFRTADKMHLRFNDAAQPGIAEYLKKTPDTTIDEWEDPVEEKEDDDLEIICDSPAPKRIKN
As for B2, the binding entry in assay [2] is on record as “binds”.
